According to patent US20030166623A1:
These are yes or no findings as the source states them, for the method shown. For some assays here: In cells and extracts the contact can be indirect. Some entries that bind do so weakly or less than the wild type.

Amino acid sequences for entries named in this document (tags omitted). A change or cut given only in a name is not applied to a line headed by its entry. Residues count along the entry.
UniProt P10275: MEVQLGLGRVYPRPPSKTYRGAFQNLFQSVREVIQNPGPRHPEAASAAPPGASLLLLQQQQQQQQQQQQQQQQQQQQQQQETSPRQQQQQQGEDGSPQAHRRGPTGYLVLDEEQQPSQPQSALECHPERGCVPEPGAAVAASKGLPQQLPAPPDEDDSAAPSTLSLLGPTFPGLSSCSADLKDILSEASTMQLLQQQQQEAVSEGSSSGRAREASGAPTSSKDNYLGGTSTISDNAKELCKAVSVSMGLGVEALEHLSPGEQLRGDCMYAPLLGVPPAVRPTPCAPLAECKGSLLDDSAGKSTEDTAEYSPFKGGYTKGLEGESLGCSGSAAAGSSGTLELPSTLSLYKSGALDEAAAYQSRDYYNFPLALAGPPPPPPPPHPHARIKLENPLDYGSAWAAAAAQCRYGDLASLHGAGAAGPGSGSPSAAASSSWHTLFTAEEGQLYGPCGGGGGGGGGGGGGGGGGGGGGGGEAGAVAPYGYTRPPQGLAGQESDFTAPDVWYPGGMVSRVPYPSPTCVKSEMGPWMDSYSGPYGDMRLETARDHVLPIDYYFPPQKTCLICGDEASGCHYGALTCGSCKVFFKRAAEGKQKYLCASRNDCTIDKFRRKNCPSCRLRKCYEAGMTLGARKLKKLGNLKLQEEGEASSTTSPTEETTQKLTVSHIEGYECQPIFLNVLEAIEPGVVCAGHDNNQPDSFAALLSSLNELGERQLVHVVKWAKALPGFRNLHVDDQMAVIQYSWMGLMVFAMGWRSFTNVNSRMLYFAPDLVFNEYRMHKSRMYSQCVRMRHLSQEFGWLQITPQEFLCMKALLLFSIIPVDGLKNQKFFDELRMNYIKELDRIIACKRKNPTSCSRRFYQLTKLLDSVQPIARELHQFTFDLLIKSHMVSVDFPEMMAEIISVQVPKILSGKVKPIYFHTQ
AR-DBD + LBD (yeast 2-hybrid bait): residues 506-920 of P10275
UniProt P03372: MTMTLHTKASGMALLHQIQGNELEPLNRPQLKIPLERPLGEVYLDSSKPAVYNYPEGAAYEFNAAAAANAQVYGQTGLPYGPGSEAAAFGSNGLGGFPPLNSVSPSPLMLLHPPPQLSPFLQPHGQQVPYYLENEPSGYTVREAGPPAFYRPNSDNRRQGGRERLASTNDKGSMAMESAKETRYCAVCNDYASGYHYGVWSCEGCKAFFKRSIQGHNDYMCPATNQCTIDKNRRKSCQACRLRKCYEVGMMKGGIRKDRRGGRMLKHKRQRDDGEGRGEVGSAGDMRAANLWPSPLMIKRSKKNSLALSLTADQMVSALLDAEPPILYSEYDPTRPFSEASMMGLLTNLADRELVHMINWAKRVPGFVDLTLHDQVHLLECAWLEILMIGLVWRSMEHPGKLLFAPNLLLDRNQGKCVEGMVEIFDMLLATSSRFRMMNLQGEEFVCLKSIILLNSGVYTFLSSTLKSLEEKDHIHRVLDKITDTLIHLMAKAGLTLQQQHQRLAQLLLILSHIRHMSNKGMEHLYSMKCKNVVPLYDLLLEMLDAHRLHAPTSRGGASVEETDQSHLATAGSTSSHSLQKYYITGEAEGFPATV
UniProt Q5R8Z4: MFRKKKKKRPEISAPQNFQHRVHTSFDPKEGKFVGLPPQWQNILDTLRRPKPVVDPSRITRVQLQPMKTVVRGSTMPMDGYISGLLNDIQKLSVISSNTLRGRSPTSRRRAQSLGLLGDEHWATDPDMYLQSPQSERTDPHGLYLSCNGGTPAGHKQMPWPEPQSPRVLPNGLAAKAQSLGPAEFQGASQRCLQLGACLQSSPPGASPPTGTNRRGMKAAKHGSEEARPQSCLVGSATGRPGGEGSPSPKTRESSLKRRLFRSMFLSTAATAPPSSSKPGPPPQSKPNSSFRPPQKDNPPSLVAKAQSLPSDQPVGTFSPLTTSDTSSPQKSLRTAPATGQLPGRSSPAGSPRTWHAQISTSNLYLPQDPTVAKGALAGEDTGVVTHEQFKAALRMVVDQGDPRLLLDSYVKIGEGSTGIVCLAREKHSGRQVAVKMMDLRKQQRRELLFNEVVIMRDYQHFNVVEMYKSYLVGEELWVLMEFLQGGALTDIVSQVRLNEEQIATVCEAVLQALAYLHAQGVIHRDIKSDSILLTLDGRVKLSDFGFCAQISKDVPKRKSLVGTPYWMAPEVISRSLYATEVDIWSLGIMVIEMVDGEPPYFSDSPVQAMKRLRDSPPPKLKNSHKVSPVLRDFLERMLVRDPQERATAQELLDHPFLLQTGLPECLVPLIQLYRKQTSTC
UniProt Q61026, residues 730-1121: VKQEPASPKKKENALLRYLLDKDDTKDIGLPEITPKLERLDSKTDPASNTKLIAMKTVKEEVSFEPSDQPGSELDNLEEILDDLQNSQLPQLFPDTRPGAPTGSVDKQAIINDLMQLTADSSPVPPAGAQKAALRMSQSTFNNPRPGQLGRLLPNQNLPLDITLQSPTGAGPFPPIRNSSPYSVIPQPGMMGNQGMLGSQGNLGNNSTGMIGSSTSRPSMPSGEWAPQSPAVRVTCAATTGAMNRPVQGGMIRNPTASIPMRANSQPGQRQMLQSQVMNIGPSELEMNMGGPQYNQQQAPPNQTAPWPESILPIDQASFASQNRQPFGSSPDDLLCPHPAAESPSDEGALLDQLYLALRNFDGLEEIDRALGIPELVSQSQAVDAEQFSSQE

What was measured:
[1] = biological target: AR-DBD + LBD (yeast 2-hybrid bait) (UniProt P10275); test: yeast 2-hybrid, β-galactosidase
[2] = biological target: full length androgen receptor (UniProt P10275); test: GST pulldown of full length 35S-labeled androgen receptor, with or without DHT or bicalutamide
[3] = biological target: full length androgen receptor (UniProt P10275); test: GST pulldown, autoradiogram
estrogen receptor a (ER) [4] = biological target: estrogen receptor a (ER) (UniProt P03372); test: GST pulldown of 35S-labeled ER, autoradiogram
[5] = biological target: androgen receptor from LNCaP cells (UniProt P10275); test: GST pulldown, anti-androgen receptor Western blot
[6] = biological target: androgen receptor from LNCaP cells (UniProt P10275); test: GST pulldown from LNCaP cells, anti-androgen receptor immunoblotting
estrogen receptor a (ER) [7] = biological target: estrogen receptor a (ER) (UniProt P03372); test: GST pulldown of 35S-labeled ER, with or without estradiol or tamoxifen
[8] = biological target: full length androgen receptor (UniProt P10275); test: GST pulldown of full length 35S-labeled androgen receptor, autoradiogram
[9] = biological target: full length androgen receptor (UniProt P10275); test: GST pulldown of 35S-labeled in vitro transcribed/translated androgen receptor

Question: With “pACT2-PAK (yeast 2-hybrid prey) (from UniProt Q5R8Z4 256-681)” as the substance, how does the binding [1] read?
Answer: binds

Question: Which binding [1] does the source give for “pGAD424-GRIP1 (yeast 2-hybrid prey, GRIP1 amino acids 730-1121) (from UniProt Q61026 730-1121)” here?
Answer: binds

Question: “GST-GRIP1(730-1121) (from UniProt Q61026 730-1121)” was tested. Which binding [2] did it give?
Answer: binds

Question: “GST-PAKSI(256-682) (from UniProt Q5R8Z4 256-681)” was tested. Which binding [3] did it give?
Answer: binds

Question: And the binding (estrogen receptor a (ER) [4])?
Answer: binds

Question: What about the binding [5] of the same substance?
Answer: binds

Question: And the binding [6]?
Answer: binds

Question: And the binding (estrogen receptor a (ER) [7])?
Answer: binds

Question: What about the binding [8] of the same substance?
Answer: binds

Question: And the binding [9]?
Answer: binds

Question: And the binding [2]?
Answer: binds
